# Laboratory results reported in PubChem BioAssay AID504467 (National Center for Advancing Translational Sciences (NCATS), 2011).
# Among all 330,000 compounds or so, about 7,700 (2.3%) were called active. This list was built around the results that the source calls inconclusive (neither active nor inactive); the mix of calls is not that of the screen. Calls come from the whole dose curve; as a rule, active = well fitted inhibition curve with a large enough effect; inconclusive = small, poorly fitted or top-dose-only effect, or effect the other way; inactive = flat fitted curve, though single readings scatter. Where the call is inconclusive, the potency comes from a doubtful curve fit.
# Assay: qHTS screen for small molecules that inhibit ELG1-dependent DNA repair in human embryonic kidney (HEK293T) cells expressing luciferase-tagged ELG1; note: nearly all actives have a fitted effect of over 55% in size
# Conditions: HEK293T ELG1-luciferase reporter, luminescence, 16 h, DNA damage induced by 5-fluorouridine; activity change, negative = inhibition: at 46.1 µM (top of the series)
# Summary of the method: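 Overnight (16 hr) co-exposure of 2,000 cells/well to 5-fluorouridine and compound at 37 °C preceded detection. Luciferase was quantified via ONE-Glo luminescence; loss of signal denotes inhibition.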
# % is set by controls: 0 for no effect and ±100 for the full control effect; potency is the fitted concentration of half-maximal effect.
SMILES,Potency,"activity change, negative = inhibition"
COc1ccccc1C(=O)CSc1nccn1C,"inconclusive: 20.6 µM [activator, partial curve, poor fit]",–
Oc1c(C(Nc2nc3ccccc3s2)c2ccco2)ccc2cccnc12 (stereo not given),"inconclusive: 2.59 µM [inhibitor, partial curve, poor fit]",–
Cc1cnn(C(=S)NCCc2ccccc2)c1,"inconclusive: 12.6 µM [activator, partial curve]",–
COc1ccc(Cl)cc1-c1nc(-c2ccc(NC(=O)c3cccs3)cc2)no1,–,inactive: -1.69%
O=C(Nc1ccccc1-c1nc2ccccc2[nH]1)c1ccc(S(=O)(=O)N2CCCCC2)cc1,–,inactive: 3.98%
O=C(CSc1ccc(-c2ccc(F)cc2)nn1)Nc1ccc2c(c1)OCCO2,"inconclusive: 16.4 µM [activator, partial curve, poor fit]",–
CC(C)CC(=O)N/C(N)=N/c1nc2ccccc2o1,"inconclusive: 6.51 µM [activator, partial curve]",–
CC(Sc1ccccc1)C(=O)NNC(=O)c1csc(N2CCOCC2)n1 (stereo not given),–,inactive: 6.67%
C/C(CC(=O)Nc1ccc(Cl)cc1C(F)(F)F)=N\NC(=O)c1ccccn1,"inconclusive: 29.1 µM [activator, single point]",–
COc1ccc(CC(=O)Nc2nc(C(C)(C)C)cs2)cc1,–,inactive: -6.19%
O=C(CS(=O)(=O)c1ccccc1)N(CCCN1CCOCC1)c1nc2c(F)cccc2s1,"inconclusive: 23.1 µM [activator, partial curve, poor fit]",–
Cc1cccc(NC(=O)CN2CCSc3ccccc32)c1,–,inactive: 20.5%
Cc1noc(/C=C/N(C)C)c1S(=O)(=O)N1CCCC(C(=O)NCCC2=CCCCC2)C1 (stereo not given),–,inactive: -11.5%
CC(C)NC(=O)COC(=O)C1CSC2(c3ccc(Br)cc3)CCC(=O)N12 (stereo not given),–,inactive: -6.22%
CC(=O)N=c1c(C#N)cc2c(=O)n3cccc(C)c3nc2n1CCCOC(C)C,active: 7.3 µM,–
COc1ccc(NS(=O)(=O)c2cccc(Cl)c2Cl)cc1S(=O)(=O)N1CCCCC1,"inconclusive: 23.1 µM [inhibitor, partial curve, poor fit]",–
Cc1cccc(C)c1OCCNC(=O)c1ccc2ccccc2n1,"inconclusive: 25.9 µM [inhibitor, single point]",–
CCOc1ccc(C(=O)Nc2ncn[nH]2)cc1,"inconclusive: 23.1 µM [activator, single point]",–
Cc1ccc(COC(=O)c2ccc3c(c2)C(=O)N(CCCN2CCOCC2)C3=O)cc1,–,inactive: -9.4%
O=C(Cn1cnnn1)NC1CCCN(Cc2ccccc2F)C1 (stereo not given),–,inactive: -5.51%
Cc1ccccc1OC1CCN(C(=O)C2CCC(=O)N(C3CCCC3)C2)CC1 (stereo not given),–,inactive: -2.02%
Cc1ccc(C)c(N2N=C(C(=O)Nc3cccc(S(=O)(=O)N4CCCCC4)c3)CCC2=O)c1,–,inactive: -19.4%
c1ccc(CCN2CN=C(Nc3nc4ccccc4s3)NC2)cc1,"inconclusive: 18.3 µM [activator, single point]",–
C=CCn1c(C)cc(C(=O)CN2C(=O)c3ccccc3C2=O)c1C,"inconclusive: 3.26 µM [activator, partial curve]",–

# Structural class, the compounds so far with four or more nitrogen atoms.
SMILES,Potency,"activity change, negative = inhibition"
O=C(Nc1ccccc1-c1nc2ccccc2[nH]1)c1ccc(S(=O)(=O)N2CCCCC2)cc1,–,inactive: 3.98%
CC(C)CC(=O)N/C(N)=N/c1nc2ccccc2o1,"inconclusive: 6.51 µM [activator, partial curve]",–
CC(Sc1ccccc1)C(=O)NNC(=O)c1csc(N2CCOCC2)n1 (stereo not given),–,inactive: 6.67%
C/C(CC(=O)Nc1ccc(Cl)cc1C(F)(F)F)=N\NC(=O)c1ccccn1,"inconclusive: 29.1 µM [activator, single point]",–
Cc1noc(/C=C/N(C)C)c1S(=O)(=O)N1CCCC(C(=O)NCCC2=CCCCC2)C1 (stereo not given),–,inactive: -11.5%
CC(=O)N=c1c(C#N)cc2c(=O)n3cccc(C)c3nc2n1CCCOC(C)C,active: 7.3 µM,–
CCOc1ccc(C(=O)Nc2ncn[nH]2)cc1,"inconclusive: 23.1 µM [activator, single point]",–
O=C(Cn1cnnn1)NC1CCCN(Cc2ccccc2F)C1 (stereo not given),–,inactive: -5.51%
Cc1ccc(C)c(N2N=C(C(=O)Nc3cccc(S(=O)(=O)N4CCCCC4)c3)CCC2=O)c1,–,inactive: -19.4%
c1ccc(CCN2CN=C(Nc3nc4ccccc4s3)NC2)cc1,"inconclusive: 18.3 µM [activator, single point]",–

# Some of these compounds in order of SMILES length, ascending.
SMILES,Potency,"activity change, negative = inhibition"
CC(C)CC(=O)N/C(N)=N/c1nc2ccccc2o1,"inconclusive: 6.51 µM [activator, partial curve]",–
C=CCn1c(C)cc(C(=O)CN2C(=O)c3ccccc3C2=O)c1C,"inconclusive: 3.26 µM [activator, partial curve]",–
CC(=O)N=c1c(C#N)cc2c(=O)n3cccc(C)c3nc2n1CCCOC(C)C,active: 7.3 µM,–

# Continued:

SMILES,Potency,"activity change, negative = inhibition"
CCN(CC)CCN1C(=O)C(O)=C(C(=O)c2cc3cccc(OC)c3o2)C1c1ccc(F)cc1 (stereo not given),"inconclusive: 29.1 µM [activator, single point]",–
Cc1ccc(C(=O)O)cc1NC(=S)NC(=O)c1ccc(-c2ccccc2)cc1,"inconclusive: 18.3 µM [activator, partial curve]",–
CCN(CC)S(=O)(=O)c1ccc(C(=O)NC2=C(C(=O)OC)SCC2)cc1,"inconclusive: 32.6 µM [inhibitor, single point]",–
CCN(CC)CCNC(=O)C(=O)Nc1cc2c3c(c1)CCC(=O)N3CCC2,"inconclusive: 29.1 µM [activator, partial curve, poor fit]",–
CCN(CC)c1ccc(C(=O)OCc2cc(=O)oc3cc(O)ccc23)cc1,–,inactive: -6.15%
CN(C)S(=O)(=O)c1cccc(NC(=O)CSc2nncn2-c2ccccc2)c1,"inconclusive: 10.3 µM [inhibitor, partial curve]",–
CCOC(=O)c1sc(NC(=O)CCCn2nc([N+](=O)[O-])cc2C)c(C(=O)OCC)c1C,"inconclusive: 29.1 µM [inhibitor, single point]",–
O=C(CSc1nnc(-c2cccnc2)o1)Nc1ccc(Br)cc1,"inconclusive: 16.4 µM [activator, single point]",–
O=[N+]([O-])c1nn(-c2ccc3c(c2)OCCO3)n(O)c1=Nc1ccc(Cl)cc1,"inconclusive: 6.51 µM [activator, partial curve]",–
CCOc1ccc(C(=O)NC2CCN(C(=O)Nc3ccc(F)cc3)CC2)cc1,–,inactive: 3.43%
CCC(=O)c1cc2c(cc1NC(=O)c1ccc(C)cc1)OCCO2,–,inactive: 0%
COc1ccc(-c2csc(Nc3cc(C)ccn3)n2)cc1C,"inconclusive: 6.51 µM [inhibitor, single point]",–
C/C(=N/n1cnnc1)c1cccnc1,"inconclusive: 20.6 µM [activator, partial curve, poor fit]",–
CC(C)(C)OC(=O)CNC(=O)c1nc[nH]c1C(=O)N1CCNCC1,–,inactive: 17.2%
CCCCN(Cc1ccccc1)C(=O)C1CCN(S(=O)(=O)c2c(C)noc2C)CC1,"inconclusive: 29.1 µM [activator, single point]",–
Cc1ccc2oc(C(=O)N3CCN(C)C[C@@H]3C(C)C)c(C)c2c1,"inconclusive: 20.6 µM [activator, single point]",–
COc1cc(OC)c(OC)cc1CN1CCN(Cc2ccco2)CC1,–,inactive: -0.62%
CCOC(=O)Cn1nc(C)c(NC(=O)CCc2ccc(OC)cc2)c1C,"inconclusive: 3.26 µM [inhibitor, full curve]",–
COc1ccc2nc(C)cc(SCC(=O)N/N=C/c3ccc(O)cc3O)c2c1,"inconclusive: 13 µM [inhibitor, partial curve]",–
COc1cc(OC)cc(-c2nnc(SCC(=O)N3CCCc4ccccc43)o2)c1,"inconclusive: 35.5 µM [inhibitor, single point]",–
Cc1nnc(SCC(=O)N2c3ccccc3CC2C)s1 (stereo not given),"inconclusive: 20.6 µM [activator, partial curve, poor fit]",–
COc1cc2c(cc1OC)CN(C(=O)c1cc(S(=O)(=O)N3CCOCC3)ccc1C)CC2,–,inactive: 12.3%
COc1ccc(N2CCN(C(=O)c3cc4c(s3)-c3ccccc3S(=O)(=O)C4)CC2)cc1,"inconclusive: 16.4 µM [inhibitor, single point]",–
CC(=O)OCCNc1cc(SCc2ccco2)c2nonc2c1[N+](=O)[O-],–,inactive: 0.521%

SMILES,Potency,"activity change, negative = inhibition"
O=c1c2ccccc2ncn1-c1ccc(Cl)c(Cl)c1,–,inactive: 17.7%
COc1ccc(C(C)(C)C)cc1NC(=O)c1[nH]c(C)c(C(C)=O)c1C,active: 5.8 µM,–
COc1ccc(OCC(=O)N/N=C(\C)c2cc3ccccc3o2)cc1,"inconclusive: 9.2 µM [activator, partial curve]",–
COc1ccc(-c2[nH]ncc2CNCCc2ncccc2C)cc1F,"inconclusive: 1.64 µM [inhibitor, partial curve, poor fit]",–
CN(C)/C=N/c1cc(=O)n(C)c(=O)n1Cc1ccccc1,"inconclusive: 16.4 µM [activator, partial curve]",–
CNC(=O)Cn1ncc2c(C)n(Cc3ccc(C)cc3)c(C)c2c1=O,–,inactive: 4.08%
COc1ccc(-c2cc(C(=O)N3CCN(c4ncccn4)CC3)c3ccccc3n2)cc1OC,active: 6.51 µM,–
O=C(NCc1cccnc1)c1cc2nc(-c3ccc4c(c3)OCO4)cc(C(F)(F)F)n2n1,–,inactive: -1.04%
NC(=O)c1ccsc1NC(=O)COC(=O)Cc1cccc2ccccc12,active: 1.64 µM,–
CC1CCCCC1NC(=O)C(=O)NCC1CCCO1 (stereo not given),"inconclusive: 18.4 µM [activator, single point]",–
CC(C)(C)C(=O)CSc1nnc(Nc2ccccc2)s1,"inconclusive: 20.6 µM [activator, partial curve]",–
CC1(c2ccccc2)NC(=O)N(CC(=O)N2CCN(S(=O)(=O)c3ccccc3[N+](=O)[O-])CC2)C1=O (stereo not given),"inconclusive: 0.0046 µM [activator, full curve]",–
CN(C)c1nc(N2CCOCC2)nc(N(c2ccccc2)c2ccccc2)n1,"inconclusive: 29.1 µM [inhibitor, partial curve, poor fit]",–
O=c1c2cn[nH]c2nc(SCc2ccccc2F)n1-c1ccc(Br)cc1,"inconclusive: 29.1 µM [activator, single point]",–
COc1ccc(CNc2ccc(-c3ccc(OC)cc3)nn2)cc1,"inconclusive: 13 µM [activator, partial curve, poor fit]",–
CNC(=O)c1c(O)c2cccc3c2n(c1=O)CCC3,"inconclusive: 20.6 µM [inhibitor, partial curve, poor fit]",–
Cc1cccc(/C=N/N2CCN(c3ccccc3)CC2)c1,"inconclusive: 18.4 µM [activator, partial curve]",–
CCOC(=O)c1c(C)[nH]c(C(=O)CSc2nnc(Nc3ccccc3F)s2)c1C,"inconclusive: 18.4 µM [inhibitor, single point]",–
Cc1ccc2oc(-c3cccc(NC(=O)C4CCCO4)c3)nc2c1 (stereo not given),"inconclusive: 11.6 µM [activator, partial curve]",–
COc1cc(C(=O)NCC2CCCO2)ccc1OCc1ccc(Cl)cc1 (stereo not given),"inconclusive: 23.1 µM [inhibitor, single point]",–
Oc1ccc(-c2csc(Nc3ccccn3)n2)cc1,"inconclusive: 0.891 µM [activator, full curve, poor fit]",–
CCOc1ccc(S(=O)(=O)n2ccc(C)n2)cc1,–,inactive: 1.84%
